# These are yes or no findings as the source states them, for the method shown. In cells and extracts the contact can be indirect. Here binding means that the protein was enriched with, or labelled near, the bait; the list need not be complete. Where a sequence is shown, tags or fusion partners need not be part of it.
# By UniProt entry, the sequences of proteins in these tests, tags left out.
# UniProt P49674: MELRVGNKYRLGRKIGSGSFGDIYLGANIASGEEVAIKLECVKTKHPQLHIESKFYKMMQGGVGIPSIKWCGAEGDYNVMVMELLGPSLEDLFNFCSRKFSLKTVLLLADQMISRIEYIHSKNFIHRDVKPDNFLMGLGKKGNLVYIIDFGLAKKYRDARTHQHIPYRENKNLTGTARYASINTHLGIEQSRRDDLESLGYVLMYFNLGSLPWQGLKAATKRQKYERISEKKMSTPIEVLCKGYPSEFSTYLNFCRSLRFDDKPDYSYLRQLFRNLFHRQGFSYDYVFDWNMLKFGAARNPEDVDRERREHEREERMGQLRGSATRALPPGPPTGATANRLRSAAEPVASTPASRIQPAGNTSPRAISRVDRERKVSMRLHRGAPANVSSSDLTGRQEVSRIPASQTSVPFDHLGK
# T1: GFP-NAP1L4 (human) (UniProt Q99733)
# T1 sequence: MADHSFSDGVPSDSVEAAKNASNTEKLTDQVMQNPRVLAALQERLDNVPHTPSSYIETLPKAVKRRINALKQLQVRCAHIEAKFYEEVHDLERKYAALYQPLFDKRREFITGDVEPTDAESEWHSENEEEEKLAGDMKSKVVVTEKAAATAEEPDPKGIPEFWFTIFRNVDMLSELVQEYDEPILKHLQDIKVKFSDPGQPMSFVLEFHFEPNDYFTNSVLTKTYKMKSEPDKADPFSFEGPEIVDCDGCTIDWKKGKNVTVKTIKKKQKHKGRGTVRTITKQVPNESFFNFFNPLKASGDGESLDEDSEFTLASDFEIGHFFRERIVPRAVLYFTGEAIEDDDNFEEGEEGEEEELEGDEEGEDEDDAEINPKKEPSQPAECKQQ
# T2: GFP-NAP1L4-C383S (human) (UniProt Q99733)
# T2 sequence: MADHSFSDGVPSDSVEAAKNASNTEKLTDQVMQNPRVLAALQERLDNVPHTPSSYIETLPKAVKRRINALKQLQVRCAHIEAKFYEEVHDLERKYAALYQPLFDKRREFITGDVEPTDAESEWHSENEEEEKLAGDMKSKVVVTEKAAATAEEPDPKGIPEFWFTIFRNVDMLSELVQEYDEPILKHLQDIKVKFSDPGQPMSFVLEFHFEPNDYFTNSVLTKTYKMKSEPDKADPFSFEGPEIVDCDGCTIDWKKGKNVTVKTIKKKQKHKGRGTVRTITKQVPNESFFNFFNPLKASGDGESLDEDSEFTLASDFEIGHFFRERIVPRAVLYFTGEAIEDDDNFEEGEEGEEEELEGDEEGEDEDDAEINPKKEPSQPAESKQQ
# Key:
# [1] = molecular target: T1, GFP-NAP1L4 (human); assay: affinity purification with mass spectrometry
# [2] = molecular target: T2, GFP-NAP1L4-C383S (human); assay: affinity purification with mass spectrometry
Molecule,binding [1],binding [2]
CSNK1E (from UniProt P49674 1-416) (enzyme),binds,binds
"PAXBP1 (protein, UniProt Q9Y5B6 1-917) MFRKARRVNVRKRNDSEEEERERDEEQEPPPLLPPPGTGEEAGPGGGDRAPGGESLLGPGPSPPSALTPGLGAEAGGGFPGGAEPGNGLKPRKRPRENKEVPRASLLSFQDEEEENEEVFKVKKSSYSKKIVKLLKKEYKEDLEKSKIKTELNSSAESEQPLDKTGHVKDTNQEDGVIISEHGEDEMDMESEKEEEKPKTGGAFSNALSSLNVLRPGEIPDAAFIHAARKKRQMARELGDFTPHDNEPGKGRLVREDENDASDDEDDDEKRRIVFSVKEKSQRQKIAEEIGIEGSDDDALVTGEQDEELSRWEQEQIRKGINIPQVQASQPAEVNMYYQNTYQTMPYGSSYGIPYSYTAYGSSDAKSQKTDNTVPFKTPSNEMTPVTIDLVKKQLKDRLDSMKELHKTNRQQHEKHLQSRVDSTRAIERLEGSSGGIGERYKFLQEMRGYVQDLLECFSEKVPLINELESAIHQLYKQRASRLVQRRQDDIKDESSEFSSHSNKALMAPNLDSFGRDRALYQEHAKRRIAEREARRTRRRQAREQTGKMADHLEGLSSDDEETSTDITNFNLEKDRISKESGKVFEDVLESFYSIDCIKSQFEAWRSKYYTSYKDAYIGLCLPKLFNPLIRLQLLTWTPLEAKCRDFENMLWFESLLFYGCEEREQEKDDVDVALLPTIVEKVILPKLTVIAENMWDPFSTTQTSRMVGITLKLINGYPSVVNAENKNTQVYLKALLLRMRRTLDDDVFMPLYPKNVLENKNSGPYLFFQRQFWSSVKLLGNFLQWYGIFSNKTLQELSIDGLLNRYILMAFQNSEYGDDSIKKAQNVINCFPKQWFMNLKGERTISQLENFCRYLVHLADTIYRNSIGCSDVEKRNARENIKQIVKLLASVRALDHAMSVASDHNVKEFKSLIEGK",binds,binds
"NPM3 (protein, UniProt O75607 1-178) MAAGTAAALAFLSQESRTRAGGVGGLRVPAPVTMDSFFFGCELSGHTRSFTFKVEEEDDAEHVLALTMLCLTEGAKDECNVVEVVARNHDHQEIAVPVANLKLSCQPMLSLDDFQLQPPVTFRLKSGSGPVRITGRHQIVTMSNDVSEEESEEEEEDSDEEEVELCPILPAKKQGGRP",binds,binds
